Values of other authors in patent US5449773A, “Platinum complexes of sucrose derivatives” (priority 1995, dated 1995).

System: cellular DNA
Details: intracellular, after hydrolysis; listed as cisplatin; cited from earlier work

## N.N.[Cl][Pt][Cl] [Sample No. 1, Cis-dichlorodiamine platinum]
  fraction bound to cellular DNA: about one percent
